This is an account of results in PubChem BioAssay AID493014 (National Center for Advancing Translational Sciences (NCATS), 2011).

Some of the results follow. The main result of the screen is listed elsewhere. These columns were measured beside it and carry no call. Most of these compounds were active or inconclusive in the main read-out, so they are no random draw. Potencies come from curve fits of mixed quality, noted in brackets.

The experiment is described as follows: qHTS Assay to Find Inhibitors of Chronic Active B-Cell Receptor Signaling. To be noted: ABC-DLBCL IkBa-CBG/CBR reporter, luminescence ratio (green luciferase fused to IkBa over red control in TMD8 lymphoma cells), 4 h. In a few lines:
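TMD8 ABC-DLBCL cells carrying doxycycline-inducible green luciferase fused to IkappaBalpha plus unfused red luciferase were exposed to compounds (up to 46 uM) for 4 hrs at 37C. Activity came from the overlap-corrected green/red luminescence ratio.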
In general terms: qHTS replaces the single test concentration by a dilution series.

Where [1] appears, read: measured here: CBR red luminescence, cell number.
The mark [2] stands for this setting: measured here: IkBa-CBG green luminescence.

For `Cc1nc(NC(=O)/C=C/c2ccccc2)sc1C(=O)NCCO`, the concentration at half-maximal activity (AC50) (usually the midpoint of the concentration-response curve, whichever way the signal moves) under setting [1] is 2 µM [falling, full curve].

Take `O=C(O)c1ccccc1SCc1cn2cc(Cl)ccc2n1`: the AC50 under setting [1] is 0.708 µM [rising, partial curve, poor fit].

In the case of `COc1ccc(-c2csc(-c3ccc(O)cc3)n2)cc1`, under setting [2], the concentration at half-maximal activity (AC50) was 20 µM [falling, partial curve, poor fit].

In the case of `Cc1occc1-c1nnc(SCC(=O)Nc2nc(-c3ccccc3)cs2)o1`, the AC50 under setting [1] is 13 µM [rising, partial curve, poor fit].

Regarding `C/C=C/CSc1nc2c(c(=O)[nH]c(=O)n2C)n1C(C)C`, the AC50 under setting [1] is 3.16 µM [rising, full curve, poor fit].

In the case of `Cc1nc(-n2ncc(C#N)c2N)c2c3c(sc2n1)CCC3`, under setting [1], the concentration at half-maximal activity (AC50) is 0.13 µM [rising, full curve, poor fit].

For the compound `O=C(c1ccccc1)c1c2c(cc3sc4ccccc4[n+]13)-c1cccc3cccc-2c13`, the AC50 under setting [1] was 29.1 µM [falling, single point].

`COc1cccc(C(C2C(=O)CC(C)(C)CC2=O)C2C(=O)CC(C)(C)CC2=O)c1`: under setting [1], the AC50 was 3.16 µM [rising, single point].

On to `O=c1[nH]c2ccccc2nc1NCc1ccccc1`, for which the concentration at half-maximal activity (AC50) under setting [1] was 12.6 µM [falling, single point].

With `O=C(Nc1nnc(-c2ccccc2F)s1)c1ccccc1F`, the half-maximal activity concentration (AC50) under setting [1] is 3.16 µM [falling, partial curve].

For `Clc1ccc(-c2nnc(-c3cccnc3)o2)cc1`, the AC50 under setting [1] was 20 µM [rising, single point].

Take `Cc1cccc(OCCC(=O)Nc2ccc(F)c(F)c2)c1`: under setting [1], the AC50 was 3.55 µM [falling, partial curve, poor fit].

As for `Cc1csc(NC(=O)CSc2nnc(-c3cc(C)on3)o2)n1`, the AC50 under setting [1] is 29.1 µM [falling, single point].

As for `COc1ccc(NC(=O)O/N=C/c2ccc(N(C)C)cc2)cc1`, under setting [1], the half-maximal activity concentration (AC50) was 35.5 µM [falling, single point].

For `CC(=O)N1N=C(c2ccc(C)cc2)OC1c1ccc(C)cc1` (stereo not given), the AC50 under setting [1] was 14.6 µM [rising, partial curve, poor fit].

As to `O=C(c1nc2n(n1)C(c1ccc(Cl)cc1)C=C(c1ccccc1)N2)N1CCOCC1` (stereo not given), the half-maximal activity concentration (AC50) under setting [1] is 6.51 µM [rising, single point].

With `CC(=O)c1nnn(-c2ccc([N+](=O)[O-])cc2C)c1C`, the AC50 under setting [1] is 3.98 µM [rising, partial curve, poor fit].

As for `Cc1cc(Cl)cc(Br)c1OCCCN1C(=O)NC(C)(C)C1=O`, under setting [1], the AC50 was 29.1 µM [falling, single point].

With `CCOc1cccc2sc(N(CCN(C)C)C(=O)c3cc4ccccc4cc3OC)nc12`, the AC50 runs as follows: under setting [1], 12.6 µM [falling, partial curve, poor fit]; under setting [2], 17.8 µM [rising, partial curve, poor fit].

`CCCN1C(=O)c2cc(C(=O)Nc3ccccc3C)ccc2C1Nc1ccccc1C` (stereo not given): the AC50 under setting [1] is 22.4 µM [falling, single point].

As for `Cc1ccc(Nc2nnc(-c3ccncc3)s2)c(Br)c1`, under setting [1], the AC50 is 11.6 µM [falling, partial curve].

Turning to `COc1ccc(C(=O)Nc2ccc(Cl)cc2C(=O)N2CCOCC2)cc1`, the AC50 under setting [1] is 7.08 µM [rising, partial curve, poor fit].

On to `S=c1[nH]nc(-c2cc(-c3ccccc3)n[nH]2)n1/N=C/C(Br)=C/c1ccccc1`, for which the half-maximal activity concentration (AC50) under setting [1] is 12.6 µM [falling, single point].

As for `CN(C)c1cccc(C(=O)Nc2cccc(F)c2)c1`, under setting [1], the AC50 was 0.651 µM [rising, full curve].

For `COC(=O)C(C#N)C(=C1C(=O)CC(C)(C)CC1=O)c1ccc(O)cc1` (stereo not given), under setting [1], the half-maximal activity concentration (AC50) is 29.1 µM [falling, single point].

As for `COc1cc(C(=O)N2CCN(c3ncnc4sc(C)c(C)c34)CC2)cc(OC)c1OC`, the AC50 under setting [1] was 28.2 µM [falling, partial curve, poor fit].

Turning to `CCN(CC)c1nc(C)c(C(=S)Nc2cc([N+](=O)[O-])ccc2Cl)s1`, the AC50 under setting [1] is 3.98 µM [rising, full curve].

For the compound `COc1ccc(C(=O)COC(=O)CN2CC(=O)Oc3ccccc32)cc1Br`, under setting [1], the half-maximal activity concentration (AC50) was 18.4 µM [falling, partial curve].

`CN(C(=S)NC(=O)Cc1ccccc1)c1ccccc1`: the concentration at half-maximal activity (AC50) was 35.5 µM [falling, single point] under setting [1] and 25.1 µM [falling, single point] under setting [2].

As to `COc1ccccc1C1C=C(c2ccc(C(C)C)cc2)Nc2nnnn21` (stereo not given), under setting [1], the AC50 was 0.398 µM [rising, full curve, poor fit].

For `CCOC(=O)CC1C(=O)NCCN1c1nc2ccc(C)cn2c(=O)c1/C=C1\SC(=S)N(C(C)CC)C1=O` (stereo not given), the AC50 under setting [1] was 3.98 µM [falling, full curve, poor fit].

`Cc1nc2cc(NC(=O)Nc3nccs3)ccc2n1C`: the AC50 under setting [1] was 0.58 µM [falling, full curve, poor fit].

With `Cc1noc2ncnc(Sc3ccc(Br)cc3)c12`, the half-maximal activity concentration (AC50) under setting [1] was 2.82 µM [falling, partial curve, poor fit].

As to `CC(=O)c1cccc(NC(=S)NNC(=O)c2ccco2)c1`, the AC50 under setting [1] is 22.4 µM [falling, single point].

With `CCOc1ccc(NC(=NCc2ccc3c(c2)OCO3)SC2CC(=O)N(c3ccc(OCC)cc3)C2=O)cc1` (stereo not given), the AC50 under setting [1] was 13 µM [rising, partial curve, poor fit].

Turning to `CC(C)C[C@H]1CN=C(Nc2ccccc2)N1CCC(C)c1ccccc1` (stereo not given in full), the concentration at half-maximal activity (AC50) under setting [1] was 29.1 µM [falling, single point].

For the compound `Cc1nc2sc(-c3ccccc3)cc2c(=O)[nH]1`, the AC50 under setting [1] is 7.31 µM [falling, partial curve].

On to `CCN(CC)C(=O)Nc1ccc(C(=O)OC)cc1`, for which the AC50 under setting [1] is 0.13 µM [falling, full curve, poor fit].

`COc1ccccc1CCNC(=O)Cn1ccc2cc(S(=O)(=O)N3CCCC3)ccc21`: the AC50 under setting [1] is 3.16 µM [falling, partial curve, poor fit].

With `CCCCCn1nc(C)c(/C=N/NC(=O)c2ccoc2C)c1C`, the AC50 under setting [1] was 13 µM [falling, partial curve].

Turning to `CCCn1c2c(c(O)c(C(=O)Nc3ccccc3)c1=O)CCCC2`, the AC50 under setting [1] was 3.55 µM [rising, partial curve, poor fit].

`O=c1c2oc3ccccc3c2[nH]c(=S)n1-c1ccccc1`: under setting [1], the half-maximal activity concentration (AC50) is 18.4 µM [falling, partial curve].

Turning to `CCCc1[nH]nc2c1C1(CCN(C(=O)OCc3ccccc3)CC1)C(C#N)=C(N)O2`, under setting [1], the concentration at half-maximal activity (AC50) is 7.08 µM [falling, partial curve, poor fit].

Take `Cc1cccc(CSc2cccc3cccnc23)c1`: the half-maximal activity concentration (AC50) by setting is: under setting [1], 35.5 µM [falling, single point]; under setting [2], 5.01 µM [falling, single point].

In the case of `COc1ccccc1CN(Cc1cc2cc(C)ccc2[nH]c1=O)Cc1nnnn1CC1CCCO1` (stereo not given), the half-maximal activity concentration (AC50) under setting [1] is 7.31 µM [falling, partial curve, poor fit].

As for `Cc1sc2ncnc(NCc3cccs3)c2c1C`, the concentration at half-maximal activity (AC50) under setting [1] is 15.8 µM [rising, partial curve].

As for `Cc1cccc(NC(=O)CN2CCCN(S(=O)(=O)c3ccc(Br)s3)CC2)c1`, under setting [1], the AC50 is 17.8 µM [falling, single point].

Turning to `COc1ccc(OC)c2sc(N3CCCCC3)nc12`, the concentration at half-maximal activity (AC50) under setting [1] was 1.46 µM [rising, partial curve, poor fit].

For `CC(C)(c1ccccc1)c1ccc(OCCN)cc1`, the AC50 under setting [1] was 25.1 µM [falling, single point].

`Cc1cccc(NC(=S)NCc2ccco2)n1`: under setting [1], the AC50 is 0.562 µM [rising, partial curve, poor fit].

Consider `N#C/C(=N\Nc1cccc(C(F)(F)F)c1)C(=O)c1ccsc1`, for which the concentration at half-maximal activity (AC50) under setting [1] was 12.6 µM [falling, partial curve].

Consider `COc1ccc(C)cc1NC(=O)c1ccc(OCc2c(C)noc2C)cc1`, for which the concentration at half-maximal activity (AC50) under setting [1] was 1.84 µM [rising, partial curve].

As to `COC(=O)COC(=O)c1ccccc1NC(=O)c1ccccc1`, the half-maximal activity concentration (AC50) under setting [1] is 20.6 µM [falling, partial curve].

On to `COc1cccc(NC(=O)CSc2nc3ccccc3c(=O)n2Cc2cccs2)c1`, for which the AC50 under setting [1] was 2.91 µM [falling, partial curve, poor fit].

As to `CC(C)[C@H](NS(=O)(=O)c1ccccc1)C(=O)OCC(=O)NCc1ccc2c(c1)OCO2`, under setting [1], the half-maximal activity concentration (AC50) was 29.1 µM [falling, single point].

Take `COc1ccc(/C=C\C(=O)O[C@@H]2C(O)C(O[C@@H]3OC(C)[C@H](O[C@@H]4OCC(O[C@H]5O[C@H](CO)[C@@H](O)C(O)C5O)C(O)C4O)C(O)C3O)[C@H](OC(=O)[C@]34CCC(C)(C)C[C@@H]3C3=CCC5[C@@]6(C)CC(O)C(O[C@@H]7OC(CO)C(O)[C@H](O)[C@H]7O)[C@@](C)(C(=O)O)C6CC[C@@]5(C)[C@]3(CO)CC4)O[C@H]2C)cc1` (stereo not given in full): the concentration at half-maximal activity (AC50) under setting [1] is 29.1 µM [falling, single point].

Regarding `COCCCNC(=O)c1ccc2c3c(onc13)-c1ccccc1C2=O`, the AC50 under setting [1] is 22.4 µM [falling, single point].

For `O=C(CCS(=O)(=O)c1ccccc1)Nc1nc2cc3c(cc2s1)OCCO3`, the AC50 under setting [1] was 10 µM [falling, partial curve].

`Cc1ccc(-c2nc(N)n(S(=O)(=O)c3ccc(C)cc3)n2)cc1`: under setting [1], the AC50 was 3.98 µM [rising, full curve, poor fit].

For `COc1ccc(-c2cnc(SCC(=O)Nc3cc(C)on3)n2Cc2ccco2)cc1`, the concentration at half-maximal activity (AC50) under setting [1] was 22.4 µM [falling, single point].

With `CCn1c(SCC(=O)Nc2ccccc2)nc2nc3c(cc2c1=O)COC(C)(C)C3`, the concentration at half-maximal activity (AC50) under setting [1] was 15.8 µM [falling, single point].

Consider `CN(C)c1ccc(N=Nc2ccc(S(N)(=O)=O)cc2)cc1`, for which the AC50 under setting [1] is 15.8 µM [rising, partial curve, poor fit].
